Results taken from paper PMC3765158, “Structure Determination and Biochemical Characterization of a Putative HNH Endonuclease from Geobacter metallireducens GS-15” (PLoS ONE, 2013).
These are yes or no findings as the source states them, for the method shown. Some binding calls cover weakened binding; strength is not graded here.

Target: Gmet_0936 protein (putative HNH endonuclease) from Geobacter metallireducens GS-15, with C-terminal LEH6 (Geobacter metallireducens GS-15) (UniProt Q39X46)
Assay: crystal structure; SAD, selenomethionyl protein; crystals from 0.2 M magnesium sulfate, 20% PEG 8000, 100 mM Tris-HCl pH 8.5, 4°C; 3 molecules in the asymmetric unit; both purified

binding: binds
B1: Gmet_0936 protein (putative HNH endonuclease) from Geobacter metallireducens GS-15, with C-terminal LEH6 (enzyme, UniProt Q39X46 1-104, looked up)
chain: MNYFIVEVSEQEVKREKEKARELRRSQWWKNRIARGICHYCGEIFPPEELTMDHLVPVVRGGKSTRGNVVPACKECNNRKKYLLPVEWEEYLDSLESEPSDGEG
modifications: selenomethionine in place of methionine (selenomethionine-labeled)
notes: Gmet_0936, putative HNH endonuclease of Geobacter metallireducens GS-15; full-length gene in a pET21 derivative (pGmR87-21.1); molecular mass with tag 13.3 kDa; The SEC with static light scattering used a thawed aliquot of the crystallization stock (the same protein as in the crystal); also called Gme HNHE (H6); Gmet_0936 (H6); source: E. coli BL21 (DE3) pMGK, selenomethionine-labeled, purified …
